{"source": "PubChem BioAssay AID1259254 (NCATS, 2017)", "purpose": "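Finding genes that stop cells copying their DNA twice in one cycle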 (primary screen)", "system": "human HCT116 colorectal cancer cells", "reagent": "single siRNA against human genes", "time to read-out": "3 days", "read-out": "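Nuclei stained with Hoechst and imaged; cell-cycle phase assigned by DNA content; G2 share scaled per plate, non-targeting siRNA 0%, GMNN siRNA 100%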", "direction": "G2 robust z-score: higher = more G2 cells, more excess DNA replication", "hit rule": "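Active siRNAs have a G2 robust z of 5 or more median absolute deviations over the median, which in these data means about 38% or higher of GMNN control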", "note": "In all, the deposit lists about 59,000 reagents; this is an unselected part. In the full data, about 1,550 (2.6%) got an active call. 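G2 share is only a proxy for re-replication; each gene was hit by three separate siRNAs, and active genes were retested.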 Unmarked entries are inactive. The numbers tell different reagents against one gene apart. Further read-outs or replicates are left out here. Reagent sequences are not shown. The record does not give: the amount of reagent."}
The opening 2 entries, ahead of the listing:
{"gene": "CTTNBP2 (cortactin binding protein 2)", "reagent no.": 1, "G2 robust z-score": 0.894}
{"gene": "CTTNBP2 (cortactin binding protein 2)", "reagent no.": 2, "G2 robust z-score": -0.702}

Results, from the first entry:
{"gene": "CTTNBP2 (cortactin binding protein 2)", "reagent no.": 1, "G2 robust z-score": 0.894}
{"gene": "CTTNBP2 (cortactin binding protein 2)", "reagent no.": 2, "G2 robust z-score": -0.702}
{"gene": "CTTNBP2 (cortactin binding protein 2)", "reagent no.": 3, "G2 robust z-score": -0.434}
{"gene": "GAD2 (glutamate decarboxylase 2)", "reagent no.": 1, "G2 robust z-score": -0.493}
{"gene": "GAD2 (glutamate decarboxylase 2)", "reagent no.": 2, "G2 robust z-score": -0.00378}
{"gene": "GAD2 (glutamate decarboxylase 2)", "reagent no.": 3, "G2 robust z-score": -0.197}
{"gene": "PLET1 (placenta expressed transcript 1)", "reagent no.": 1, "G2 robust z-score": -0.472}
{"gene": "PLET1 (placenta expressed transcript 1)", "reagent no.": 2, "G2 robust z-score": 1.51}
{"gene": "PLET1 (placenta expressed transcript 1)", "reagent no.": 3, "G2 robust z-score": -1.19}
{"gene": "PCDH1 (protocadherin 1)", "reagent no.": 1, "G2 robust z-score": 1.06}
{"gene": "PCDH1 (protocadherin 1)", "reagent no.": 2, "G2 robust z-score": -0.624}
{"gene": "PCDH1 (protocadherin 1)", "reagent no.": 3, "G2 robust z-score": -0.547}
{"gene": "ZYX (zyxin)", "reagent no.": 1, "G2 robust z-score": 4.68}
{"gene": "ZYX (zyxin)", "reagent no.": 2, "G2 robust z-score": 0.987}
{"gene": "ZYX (zyxin)", "reagent no.": 3, "G2 robust z-score": 1.26}
{"gene": "PNPLA1 (patatin like domain 1, omega-hydroxyceramide transacylase)", "reagent no.": 1, "G2 robust z-score": 0.0815}
{"gene": "PNPLA1 (patatin like domain 1, omega-hydroxyceramide transacylase)", "reagent no.": 2, "G2 robust z-score": -1.15}
{"gene": "PNPLA1 (patatin like domain 1, omega-hydroxyceramide transacylase)", "reagent no.": 3, "G2 robust z-score": -1.64}
{"gene": "LINC02909 (long independently transcribed non-coding RNA 2909)", "reagent no.": 1, "G2 robust z-score": 0.151}
{"gene": "LINC02909 (long independently transcribed non-coding RNA 2909)", "reagent no.": 2, "G2 robust z-score": 0.271}
{"gene": "LINC02909 (long independently transcribed non-coding RNA 2909)", "reagent no.": 3, "G2 robust z-score": -0.5}
{"gene": "NME6 (NME/NM23 nucleoside diphosphate kinase 6)", "reagent no.": 1, "G2 robust z-score": -1.13}
{"gene": "NME6 (NME/NM23 nucleoside diphosphate kinase 6)", "reagent no.": 2, "G2 robust z-score": -0.0285}
{"gene": "NME6 (NME/NM23 nucleoside diphosphate kinase 6)", "reagent no.": 3, "G2 robust z-score": -0.0936}
